Source: US12358892B2, “Metalloenzyme inhibitors for treating cancers, Alzheimer's disease, hemochromatosis, and other disorders” (Miralogx LLC, priority 2020, dated 2025)

Assay: Unsupervised similarity search of the BioMAP Reference Database

With `c1ncc(C2=NCCC2)cc1C1=NCCC1` [Example 1] the “BioMAP Z-standard” value (Example 1 at 74 μM vs database match Cetylpyridin chloride, 1 μM) was 21.119, the “BioMAP Z-standard” value (Example 1 at 74 μM vs database match GDC0941, 370 nM) was 21.6 and the “BioMAP Z-standard” value (Example 1 at 74 μM vs database match Idelalisib, 1 μM) was 20.258. The common activities annotated (shared with cetylpyridinium chloride, SAg, BT, CASM3C, HDF3CGF, MyoF, lMphg systems) was 18.
